# This list was built around the results that the source calls inconclusive (neither active nor inactive); the mix of calls is not that of the screen. A potency beside an inconclusive call is a rough fit, not a confirmed value. Calls of active or inactive are those of the source. The call rests on the fitted dose curve.
# Assay: Confirmatory qHTS for inhibitors of MERS-S pseudo-typed particle cell entry
# Details: MERS-S pseudotyped particle entry, luciferase reporter; series mostly up to 57.1 µM; activity change, negative = inhibition: at the top concentration
Structure (SMILES),Potency,"activity change, negative = inhibition"
O=c1c(C2CC(c3ccc(-c4ccc(Br)cc4)cc3)Cc3ccccc32)c(O)sc2ccccc12 (configuration not stated),active: 9.61 µM,
CC(C)(C)NCC(O)COc1ccccc1C1CCCC1 (configuration not stated),"inconclusive: 4.82 µM [inhibitor, full curve, poor fit]",
CCCCCCNC(=O)n1cc(F)c(=O)[nH]c1=O,"inconclusive: 4.82 µM [inhibitor, full curve]",
Cc1c(N)nc(C(CC(N)=O)NCC(N)C(N)=O)nc1C(=O)NC(C(=O)NC(C)C(O)C(C)C(=O)NC(C(=O)NCCc1nc(-c2nc(C(=O)NCCCN[C@@H](C)c3ccccc3)cs2)cs1)C(C)O)C(O[C@@H]1O[C@@H](CO)[C@@H](O)[C@H](O)[C@@H]1O[C@H]1O[C@H](CO)[C@@H](O)[C@H](OC(N)=O)[C@@H]1O)c1cnc[nH]1 (some centres not stated),,inactive: -15%
CC[C@H](C)C(=O)O[C@H]1C[C@@H](C)C=C2C=C[C@H](C)[C@H](CC[C@@H]3C[C@@H](O)CC(=O)O3)[C@H]21,"inconclusive: 42.9 µM [inhibitor, partial curve, poor fit]",
CC[C@@]1(O)C(=O)OCc2c1cc1n(c2=O)Cc2cc3c([N+](=O)[O-])cccc3nc2-1,"inconclusive: 0.0248 µM [inhibitor, full curve, poor fit]",
O=c1ccc2ccccc2o1,,inactive: 0%
Cc1cc(C(C#N)c2ccc(Cl)cc2)c(Cl)cc1NC(=O)c1cc(I)cc(I)c1O (configuration not stated),"inconclusive: 27.1 µM [inhibitor, partial curve, poor fit]",
N/C(=N\N=C\c1ccc(Cl)cc1)N/N=C/c1ccc(Cl)cc1,"inconclusive: 42.9 µM [inhibitor, single point]",
CCCCN=C(N)N=C(N)N,,inactive: 0%
CCCN1C[C@H](C)[C@@H](O)[C@](C)(O)[C@@H](CC)OC(=O)[C@H](C)[C@@H](O[C@H]2C[C@@](C)(OC)[C@@H](O)[C@H](C)O2)C(C)[C@@H](O[C@@H]2O[C@H](C)C[C@H](N(C)C)[C@H]2O)[C@](C)(O)C[C@H]1C (some centres not stated),"inconclusive: 42.9 µM [inhibitor, single point]",
CNC(=O)c1cc(Oc2ccc(NC(=O)Nc3ccc(Cl)c(C(F)(F)F)c3)c(F)c2)ccn1,active: 15.2 µM,
CCOc1ccc(Cc2nccc3cc(OCC)c(OCC)cc23)cc1OCC,"inconclusive: 8.57 µM [inhibitor, full curve, poor fit]",
Cc1oncc1C(=O)Nc1ccc(C(F)(F)F)cc1,,inactive: 0%
O=C(O)c1cc(O)c2c(c1)[C@H]([C@H]1c3cc(C(=O)O)cc(O)c3C(=O)c3c(O[C@@H]4O[C@H](CO)[C@@H](O)[C@H](O)[C@H]4O)cccc31)c1cccc(O[C@@H]3O[C@H](CO)[C@@H](O)[C@H](O)[C@H]3O)c1C2=O,"inconclusive: 2.64 µM [inhibitor, full curve]",
CC(C)(C)NC(=O)[C@H]1CC[C@H]2[C@@H]3CC[C@H]4NC(=O)C=C[C@]4(C)[C@H]3CC[C@]12C,"inconclusive: 24.1 µM [inhibitor, partial curve]",
CN(C/C=C/c1ccccc1)Cc1cccc2ccccc12,"inconclusive: 42.9 µM [inhibitor, single point]",
CCOc1cc2ncc(C#N)c(Nc3ccc(OCc4ccccn4)c(Cl)c3)c2cc1NC(=O)/C=C/CN(C)C,,inactive: -18.9% [at 11.2 µM]
C[C@@H]1CCO[C@H]2Cn3cc(C(=O)NCc4ccc(F)cc4F)c(=O)c(O)c3C(=O)N12,active: 0.0043 µM,
COc1c(OCCCN2CCOCC2)ccc2c3n(c(=NC(=O)c4cnc(N)nc4)nc12)CCN3,"inconclusive: 1.75 µM [inhibitor, full curve]",
CCC(C)(C)C(=O)O[C@H]1C[C@@H](C)C=C2C=C[C@H](C)[C@H](CC[C@@H]3C[C@@H](O)CC(=O)O3)[C@H]21,"inconclusive: 42.9 µM [inhibitor, single point]",
CC[C@@]1(O)C(=O)OCc2c1cc1n(c2=O)Cc2c-1nc1ccccc1c2/C=N/OC(C)(C)C,"inconclusive: 0.0121 µM [inhibitor, full curve]",
CCCCCCCCCCCCOCCOCCOCCOCCOCCOCCOCCOCCOCCO,active: 7.64 µM,
NCCNc1ccc(NCCN)c2c1C(=O)c1ccncc1C2=O,active: 19.2 µM,
CC[C@@]1(O)C(=O)OCc2c1cc1n(c2=O)Cc2cc3c(CN(C)C)c(O)ccc3nc2-1,"inconclusive: 0.0857 µM [inhibitor, full curve]",
COc1cccc2c1C(=O)c1c(O)c3c(c(O)c1C2=O)C[C@@](O)(C(=O)CO)C[C@@H]3O[C@H]1C[C@H](N)[C@H](OC2CCCCO2)[C@H](C)O1 (some centres not stated),,inactive: -19.3%
CC(=O)OCC1=C(C(=O)O)N2C(=O)[C@@H](NC(=O)Cc3cccs3)[C@H]2SC1,,inactive: 0%

# Quoted at random: two entries already listed.
Structure (SMILES),Potency,"activity change, negative = inhibition"
CC[C@H](C)C(=O)O[C@H]1C[C@@H](C)C=C2C=C[C@H](C)[C@H](CC[C@@H]3C[C@@H](O)CC(=O)O3)[C@H]21,"inconclusive: 42.9 µM [inhibitor, partial curve, poor fit]",
CC(=O)OCC1=C(C(=O)O)N2C(=O)[C@@H](NC(=O)Cc3cccs3)[C@H]2SC1,,inactive: 0%
